No constants are given. Whether binding was seen depends on the method and setting. Some entries that bind do so weakly or less than the wild type.
Assays:
Assay in all cases: peptide or protein array; SPOT peptides on cellulose membrane; 1 μM 6xHis-tagged MLL4 PHD cassette in TBS-T overnight at 4 °C; probed with anti-6xHis-HRP, chemiluminescence; signals relative to the H4K20me0 peptide (100%), spots of at least 50% taken as candidate binders; both purified
[1] = biological target: CFP1 K339me2 peptide (human) (UniProt Q9P0U4)
[2] = biological target: CFP1 K331me2 peptide (human) (UniProt Q9P0U4)
[3] = biological target: CFP1 K331me3 peptide (human) (UniProt Q9P0U4)
[4] = biological target: CFP1 K339me3 peptide (human) (UniProt Q9P0U4)

Chains of the proteins cited; added tags and fusions are not shown. Residues count along the entry.
CFP1 K331me3 peptide (Q9P0U4, residues 321-341): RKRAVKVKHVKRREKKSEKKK
CFP1 K339me3 peptide (Q9P0U4, residues 329-349): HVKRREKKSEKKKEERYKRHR
UniProt O14686, residues 156-341: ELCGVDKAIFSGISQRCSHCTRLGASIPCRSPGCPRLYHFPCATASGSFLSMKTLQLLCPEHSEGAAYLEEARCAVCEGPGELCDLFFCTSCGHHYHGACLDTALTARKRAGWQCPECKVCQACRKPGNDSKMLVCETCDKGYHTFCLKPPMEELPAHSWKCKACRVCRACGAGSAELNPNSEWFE

binding [1]: binds weakly
binding [2]: binds weakly
binding [3]: binds weakly
binding [4]: binds weakly
Substance: MLL4 PHD1–3 (residues 156–341) (from UniProt O14686 156-341) (domain or fragment)
